Reference: PubChem BioAssay AID720505 (Drosophila RNAi Screening Center, 2013)

- Purpose: 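Genes needed for store-operated calcium entry in fly cells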 (primary screen)
- Cell system: Drosophila S2R+ cells
- Knock-down reagent: long dsRNA against Drosophila genes
- Treatment: thapsigargin (2 µM) in calcium-free buffer to empty internal stores, then 2 mM calcium added back
- Measurement: 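Stores emptied by 2 µM thapsigargin without calcium, then 2 mM calcium re-added; fluo-4 fluorescence followed by FLIPR in 384-well plates, per-well averaged endpoint, raw; two screen passes, some wells retested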
- Direction: calcium signal: higher = more calcium entry after store depletion
- Call rule: 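Knock-downs counted as hits when calcium entry dropped relative to STIM1 positive and Rho1 negative controls present on each plate; roughly 1500 genes called, with reductions of differing size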
- Meaning of the calls: active = called as lowering calcium entry; inactive = not called
In all, the deposit lists about 20,000 reagents; below is a random part of those with a known target gene and a result. Of all reagents, about 2,100 (10%) are marked active. 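Raw plate signals without normalisation; calls rest on control-based scores that were not deposited; replicate 2 separates called from uncalled poorly.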 Unmarked entries are inactive. The numbers tell different reagents against one gene apart. Not given: the amount of reagent, the time to read-out.

Gene | dsRNA no. | calcium signal, replicate 1 | calcium signal, replicate 2
Myo61F (GeneID 38153) | 1 | 82.7 | 173
RpL10 (GeneID 43864) | 1 | 87.4 (active) | 79.7
CecC (GeneID 43599) | 1 | 139 | 161
CG7953 (GeneID 34801) | 1 | 82.7 | 153
polyph (GeneID 36161) | 1 | 141 | 172
rush (GeneID 31105) | 1 | 80.5 | 96.4
PpY-55A (GeneID 48532) | 1 | 144 | 117
PpY-55A (GeneID 48532) | 2 | 112 | 155
CG17261 (GeneID 33522) | 1 | 111 | 126
Cec-Psi1 (GeneID 3772648) | 1 | 108 | 226
Ir48c (GeneID 36257) | 1 | 79.9 | 202
CG15027 (GeneID 32440) | 1 | 96.3 | 139
CG43191 (GeneID 12798408) | 1 | 73.8 | 147
CG17597 (GeneID 35140) | 1 | 85.3 | 112
TbCMF46 (GeneID 34318) | 1 | 206 | 174
Cp38 (GeneID 31788) | 1 | 241 | 141
CG10365 (GeneID 42801) | 1 | 116 | 162
CycB3 (GeneID 42971) | 1 | 134 | 134
CG15628 (GeneID 33681) | 1 | 84.4 | 162
CG15628 (GeneID 33681) | 2 | 189 | 134
SerT (GeneID 37895) | 1 | 146 | 129
CG42382 (GeneID 35938) | 1 | 133 | 136
Lhr (GeneID 36957) | 1 | 166 | 105
wake (GeneID 42676) | 1 | 132 | 105
wake (GeneID 42676) | 2 | 133 | 99.5
CG7888 (GeneID 39232) | 1 | 76.8 | 86.1
Mical (GeneID 41225) | 1 | 61.2 (active) | 65.5
Mical (GeneID 41225) | 2 | 106 | 79.3
Mical (GeneID 41225) | 3 | 70.4 (active) | 105
Mical (GeneID 41225) | 4 | 108 | 79
CG9518 (GeneID 32416) | 1 | 113 | 172
Gdi (GeneID 34264) | 1 | 71.2 | 106
Nup37 (GeneID 43040) | 1 | 252 | 146
Ror (GeneID 34367) | 1 | 110 | 146
hth (GeneID 41273) | 1 | 141 | 89.6
CG9312 (GeneID 41686) | 1 | 105 | 120
CG33322 (GeneID 2768932) | 1 | 179 | 80.4
CG10343 (GeneID 35127) | 1 | 59.9 (active) | 83.2
CROT (GeneID 43332) | 1 | 127 | 107
CROT (GeneID 43332) | 2 | 69.1 (active) | 120
CG6962 (GeneID 41436) | 1 | 79.3 (active) | 102
CG13033 (GeneID 39839) | 1 | 131 | 162
CG31300 (GeneID 326132) | 1 | 265 | 140
HDAC11 (GeneID 326120) | 1 | 119 | 95.5
Slc25A46b (GeneID 35081) | 1 | 106 | 103
Cby (GeneID 42574) | 1 | 245 | 175
CG11786 (GeneID 42998) | 1 | 127 | 124
CG31342 (GeneID 41592) | 1 | 104 | 168
CG31342 (GeneID 41592) | 2 | 97 | 89.3
CG13924 (GeneID 38247) | 1 | 95.6 | 103
Pfas (GeneID 33847) | 1 | 113 | 145
CG8907 (GeneID 42050) | 1 | 172 | 313
CG34425 (GeneID 5740837) | 1 | 105 | 155
CG34425 (GeneID 5740837) | 2 | 68.2 | 218
CG42729 (GeneID 3885667) | 1 | 69.5 (active) | 84.2
Acbp4 (GeneID 38781) | 1 | 92.6 | 71.2

No new results follow: an excerpt of the list.
Gene | dsRNA no. | calcium signal, replicate 1 | calcium signal, replicate 2
Cec-Psi1 (GeneID 3772648) | 1 | 108 | 226
Ir48c (GeneID 36257) | 1 | 79.9 | 202
CG15027 (GeneID 32440) | 1 | 96.3 | 139
CG43191 (GeneID 12798408) | 1 | 73.8 | 147
CG17597 (GeneID 35140) | 1 | 85.3 | 112
TbCMF46 (GeneID 34318) | 1 | 206 | 174
Cp38 (GeneID 31788) | 1 | 241 | 141
CG10365 (GeneID 42801) | 1 | 116 | 162
